Experimental data as given in PMC4860851 (Cell Discovery, 2015).
Results are given in words; binding and its absence hold for the method and conditions named. Some binding calls cover weakened binding; strength is not graded here.

Target: HA of human influenza virus A/Puerto Rico/8/34 H1N1 (PR8), on the virus and on PR8-treated EL4 cells (influenza A/Puerto Rico/8/34 H1N1 (PR8)) (UniProt P03452)
Experiment: flow cytometry on cells; only the binder purified

Substance | binding
biotinylated Ncr1 Ig (from UniProt Q8C567 17-255) (Fc fusion) | binds
Ncr1 N139 216 238A Ig (from UniProt Q8C567 17-255) (Fc fusion) | binds
